Results of single-concentration screens

Sequences of proteins named here, by UniProt entry; tags and fusion partners are left off. Residues count along the entry.
UniProt Q4DA54, 1-478: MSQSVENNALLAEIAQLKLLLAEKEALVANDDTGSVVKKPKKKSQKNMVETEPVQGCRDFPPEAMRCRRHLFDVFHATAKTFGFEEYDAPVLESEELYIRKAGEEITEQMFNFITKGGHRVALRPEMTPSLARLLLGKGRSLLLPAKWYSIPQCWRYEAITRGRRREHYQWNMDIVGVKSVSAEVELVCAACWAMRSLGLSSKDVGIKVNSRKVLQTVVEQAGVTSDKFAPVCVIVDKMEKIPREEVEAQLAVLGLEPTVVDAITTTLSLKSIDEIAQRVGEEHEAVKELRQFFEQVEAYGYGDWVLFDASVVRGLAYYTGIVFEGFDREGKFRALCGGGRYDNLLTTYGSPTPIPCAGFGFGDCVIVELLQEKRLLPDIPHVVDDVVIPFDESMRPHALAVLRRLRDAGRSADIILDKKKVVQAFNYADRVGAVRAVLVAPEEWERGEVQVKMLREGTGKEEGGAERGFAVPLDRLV
UniProt I6X8D2, whole entry: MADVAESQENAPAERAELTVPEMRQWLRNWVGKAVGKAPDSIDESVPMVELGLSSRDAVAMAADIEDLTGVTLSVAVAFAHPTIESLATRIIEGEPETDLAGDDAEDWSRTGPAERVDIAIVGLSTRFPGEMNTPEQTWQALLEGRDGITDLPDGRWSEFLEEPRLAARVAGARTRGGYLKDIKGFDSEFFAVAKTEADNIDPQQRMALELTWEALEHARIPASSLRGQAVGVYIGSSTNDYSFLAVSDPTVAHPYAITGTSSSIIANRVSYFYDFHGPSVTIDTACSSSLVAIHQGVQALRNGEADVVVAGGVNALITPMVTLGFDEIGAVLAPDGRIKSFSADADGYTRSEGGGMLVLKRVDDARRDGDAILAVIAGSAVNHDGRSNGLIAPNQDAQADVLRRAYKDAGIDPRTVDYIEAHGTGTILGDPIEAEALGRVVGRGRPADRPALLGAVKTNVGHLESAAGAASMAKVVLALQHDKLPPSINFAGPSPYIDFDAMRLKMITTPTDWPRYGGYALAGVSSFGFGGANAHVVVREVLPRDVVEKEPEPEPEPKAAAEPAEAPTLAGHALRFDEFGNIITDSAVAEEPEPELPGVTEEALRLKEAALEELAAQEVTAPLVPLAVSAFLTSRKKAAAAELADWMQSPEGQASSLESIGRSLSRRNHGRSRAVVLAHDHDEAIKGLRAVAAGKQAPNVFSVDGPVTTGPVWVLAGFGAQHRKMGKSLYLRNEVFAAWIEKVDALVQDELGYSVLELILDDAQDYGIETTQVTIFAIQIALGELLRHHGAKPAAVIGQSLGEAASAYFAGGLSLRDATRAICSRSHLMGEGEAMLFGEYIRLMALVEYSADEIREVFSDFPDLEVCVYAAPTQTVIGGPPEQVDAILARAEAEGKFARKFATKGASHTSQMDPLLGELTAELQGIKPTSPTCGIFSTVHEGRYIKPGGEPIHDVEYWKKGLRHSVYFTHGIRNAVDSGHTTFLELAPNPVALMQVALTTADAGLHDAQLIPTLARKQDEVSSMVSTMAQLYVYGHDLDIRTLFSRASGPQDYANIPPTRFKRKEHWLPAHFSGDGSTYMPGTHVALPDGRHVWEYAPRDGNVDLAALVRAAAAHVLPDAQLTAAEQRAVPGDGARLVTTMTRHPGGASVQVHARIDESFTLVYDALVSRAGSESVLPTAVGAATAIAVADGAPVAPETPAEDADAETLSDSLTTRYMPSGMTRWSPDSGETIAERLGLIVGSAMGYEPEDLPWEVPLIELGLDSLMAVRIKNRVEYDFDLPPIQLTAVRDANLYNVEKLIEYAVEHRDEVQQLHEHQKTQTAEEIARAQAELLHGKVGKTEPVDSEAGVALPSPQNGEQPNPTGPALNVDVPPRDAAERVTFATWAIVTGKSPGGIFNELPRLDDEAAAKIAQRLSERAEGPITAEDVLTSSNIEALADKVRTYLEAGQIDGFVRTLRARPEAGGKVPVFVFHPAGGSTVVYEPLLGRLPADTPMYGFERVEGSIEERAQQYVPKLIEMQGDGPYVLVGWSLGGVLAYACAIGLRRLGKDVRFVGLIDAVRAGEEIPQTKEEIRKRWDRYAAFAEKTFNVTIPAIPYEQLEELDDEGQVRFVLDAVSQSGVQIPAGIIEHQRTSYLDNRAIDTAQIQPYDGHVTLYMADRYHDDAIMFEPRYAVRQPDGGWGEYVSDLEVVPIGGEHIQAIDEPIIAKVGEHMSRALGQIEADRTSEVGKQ
UniProt P9WNZ1, whole entry: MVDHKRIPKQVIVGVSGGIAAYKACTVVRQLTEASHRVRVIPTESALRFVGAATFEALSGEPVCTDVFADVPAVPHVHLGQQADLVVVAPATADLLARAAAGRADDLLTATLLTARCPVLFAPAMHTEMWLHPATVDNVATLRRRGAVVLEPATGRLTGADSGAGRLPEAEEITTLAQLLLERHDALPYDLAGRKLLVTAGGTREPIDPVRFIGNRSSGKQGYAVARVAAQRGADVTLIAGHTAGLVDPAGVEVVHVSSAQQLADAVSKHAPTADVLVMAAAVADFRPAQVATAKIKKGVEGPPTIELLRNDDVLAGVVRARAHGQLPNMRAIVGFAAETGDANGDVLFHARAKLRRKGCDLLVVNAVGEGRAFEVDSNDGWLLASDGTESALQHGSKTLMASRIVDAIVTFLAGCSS
UniProt Q8IDJ8, 1-583: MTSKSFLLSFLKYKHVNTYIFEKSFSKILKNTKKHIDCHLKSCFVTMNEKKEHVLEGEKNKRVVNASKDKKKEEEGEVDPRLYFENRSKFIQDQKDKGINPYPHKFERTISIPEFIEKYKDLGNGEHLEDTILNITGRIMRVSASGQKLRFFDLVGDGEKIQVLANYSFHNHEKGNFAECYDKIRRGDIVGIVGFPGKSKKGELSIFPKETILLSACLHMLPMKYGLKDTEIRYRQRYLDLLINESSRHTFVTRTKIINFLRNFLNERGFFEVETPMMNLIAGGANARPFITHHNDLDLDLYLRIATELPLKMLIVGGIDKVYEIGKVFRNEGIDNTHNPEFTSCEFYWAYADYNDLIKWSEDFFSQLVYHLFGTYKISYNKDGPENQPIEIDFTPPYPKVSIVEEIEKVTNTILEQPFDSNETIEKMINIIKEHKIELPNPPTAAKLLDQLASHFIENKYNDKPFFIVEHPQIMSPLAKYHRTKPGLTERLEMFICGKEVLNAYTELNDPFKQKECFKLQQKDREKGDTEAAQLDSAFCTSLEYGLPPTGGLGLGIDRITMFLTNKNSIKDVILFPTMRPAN
UniProt P9WFT3, whole entry: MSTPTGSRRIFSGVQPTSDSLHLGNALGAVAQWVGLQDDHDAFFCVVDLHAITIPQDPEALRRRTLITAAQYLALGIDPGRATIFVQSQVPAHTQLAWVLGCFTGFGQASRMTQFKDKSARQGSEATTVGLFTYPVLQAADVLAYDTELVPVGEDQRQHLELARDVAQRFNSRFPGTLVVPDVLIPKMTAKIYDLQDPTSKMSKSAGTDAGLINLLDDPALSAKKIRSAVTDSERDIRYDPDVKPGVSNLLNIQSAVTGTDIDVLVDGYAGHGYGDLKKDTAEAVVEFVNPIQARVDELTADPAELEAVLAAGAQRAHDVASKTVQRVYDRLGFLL

Measurements from “University of Dundee, Small-Polar-MMV Screening Library” (2021), ChEMBL document CHEMBL3988442.

A: 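Histidine-tRNA ligase, Trypanosoma cruzi CL Brener (UniProt Q4DA54). Enzyme assay of histidyl-tRNA synthetase; the read-out is not stated. Tested at 30 µM. Higher reads as stronger inhibition (inferred: compounds with an IC50 in retests scored well above the rest). Of about 69,000 compounds tested this way, about 31 (0.045%) reached 50% or more in at least one test.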
B: 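Enzyme assay of the thioesterase domain of polyketide synthase 13; the read-out is not stated. Target: Polyketide synthase Pks13, Mycobacterium tuberculosis (UniProt I6X8D2). Tested at 30 µM. Higher reads as stronger inhibition (inferred from which compounds were picked for retests). Of about 67,000 compounds tested this way, about 300 (0.46%) reached 50% or more in at least one test.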
C: 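Enzyme assay of CoaBC with a phosphate dye (Biomol Green) read at 650 nm. Target: Coenzyme A biosynthesis protein CoaBC, Mycobacterium tuberculosis (UniProt P9WNZ1). Tested at 30 µM. Higher reads as stronger inhibition, judged from the few compounds that gave an IC50. Most strong results did not repeat in a second test. Of about 67,000 compounds tested this way, about 40 (0.06%) reached 50% or more in at least one test.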
D: 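Cell assay of Leishmania donovani living inside macrophages; the read-out is not stated. Concentration: 30 µM. The record gives no direction; compounds that gave an IC50 in retests scored well above the rest, so higher reads as stronger inhibition. Of about 69,000 compounds tested this way, about 1,000 (1.5%) reached 50% or more in at least one test.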
E: 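Enzyme assay of the cytosolic lysyl-tRNA synthetase in 384-well plates, read by luminescence. Target: Lysine-tRNA ligase, Plasmodium falciparum 3D7 (UniProt Q8IDJ8). Compounds at 30 µM. Higher reads as stronger inhibition, judged from the few compounds that gave an IC50. About 69,000 compounds were tested under these conditions; 0.071% (about 49) showed 50% or more at least once.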
F: 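Tryptophan-tRNA ligase, Mycobacterium tuberculosis (UniProt P9WFT3). Enzyme assay of tryptophanyl-tRNA synthetase; the read-out is not stated. Compounds at 10 µM. Direction is not recorded; retested compounds ran higher, which suggests that high means inhibition. Size under these conditions: about 65,000 compounds, about 64 of them at 50% or above in at least one test.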

The filed quantity is “Percent Effect” (%). How 0% and 100% were set is not recorded. Most values in the screen are low, and negative values occur. Compounds were drawn at random from those tested, without regard to their results. Two or more numbers in one place are separate tests of the same structure; such repeats can differ widely. A dash means the value is not listed here; it may have been measured.

SMILES | A | B | C | D | E | F
CC(=O)N1CC[C@H](c2nc3cc(C)ccc3o2)C1 | 3.483% | -1.511% | 0.5894% | 3.857% | 6.563% | -3.738%
O=C(Nc1nncs1)NC1CCOc2ccccc21 (stereo unspecified) | 2.479% | 3.941% | -1.505% | -9.341% | -6.163% | -0.4112%
O=C(O)C(F)(F)F.[H][C@@]12CCN(c3ncc(F)cn3)C[C@]1([H])O[C@@H](C(=O)N1CCN(C)CC1)C2 | - | - | - | -2.43% | - | -
CC(=O)NCc1nnc2n1CCN(Cc1cccs1)C2 | 4.908% | -8.265% | - | - | -5.131% | -1.647%
O=C(O)C(F)(F)F.[H][C@@]12CC(=O)N(c3cccnc3)[C@@]1([H])CCN2C(=O)c1ccco1 | - | - | - | 26.38% | - | -
Cc1cc(C)n(-c2ccc(NCCNS(=O)(=O)c3ccccc3)nn2)n1 | 4.348% | -14.38% | 0.2016% | 17.43% | 0.9853% | -1.816%
Cc1cc(NC(=O)CN2CCN(c3nccs3)C(C)C2)on1 (stereo unspecified) | 2.326% | -0.8445% | 19.96% | 17.66% | 2.662% | -5.951%
O=C(O)CNc1cc(-c2cc(C3CC3)ncn2)c2cc[nH]c2n1 | 10.4% | -5.166% | 3.609% | 22.92% | 5.569% | -1.759%
Cc1ccc2nc(CNCCCN3CCCC3)cc(O)c2c1 | 13.86% | -5.855% | 3.537% | 26.64% | 4.484% | 0%
Cc1cnc(N2CCC3(CCN(CC4CC4)C3=O)CC2)nc1 | 3.759% | 71.31% | 0.4837% | 9.598% | 3.913% | 0.5344%
N#Cc1cc2c(=O)n(CC(O)C(F)(F)F)ccc2[nH]c1=O (stereo unspecified) | -2.618% | -25.13% | -4.321% | 28.06% | 27.29% | -1.509%
Cc1cc(NCc2cccc(C#N)c2)ccc1C(=O)N(C)C | 7.216% | -4.656% | -5.66% | -11.49% | 4.061% | -5.697%
COc1ncccc1C(=O)N1CC[C@H]2C[C@@H](c3noc(C)n3)O[C@@H]2C1 | 3.659% | -0.0739% | 4.261% | - | -4.419% | 0.5533%
CCn1c(CN2CCOC(Cn3cncn3)C2)nc2c(F)cccc21 (stereo unspecified) | 4.712% | 0.5983% | -4.069% | -52.3% | -4.735% | 8.751%
O=C1NC[C@@]2(C(=O)O)CN(Cc3ccc(Oc4ccccc4)cc3)C[C@@H]12 | 0% | -17.67% | 6.25% | - | -0.3666% | -0.4036%
O=C(CN(Cc1ccccc1)CC1CCOCC1)Nc1nccs1 | -0.8264% | -0.1939% | 4.946% | 5.186% | 4.013% | -3.536%
CN1CCN(C(=O)[C@@H]2CC[C@@H]3[C@@H](CCN3c3ncccn3)O2)CC1 | 5.747% | -0.204% | 7.992% | - | 3.623% | -8.417%
CCC(NC(=O)c1nn(C)cc1C(=O)O)c1ccc(C)cc1C (stereo unspecified) | 3.468% | 15.29% | 1.35% | 25.66% | 0.5449% | -
Cc1nccn1C1CCCN(C(=O)COCC2CC2)C1 (stereo unspecified) | 2.941% | -28.29% | 3.581% | 11.39% | 1.614% | -3.12%
Cc1cc(-c2nccs2)nc(C2CCN(Cc3ccncc3)CC2)n1.Cl | - | - | - | -13.13% | - | -
CC(C)c1nc(CSc2nnc(Cn3cncn3)o2)cs1 | 1.235% | -28% | -5.405% | 21.82% | 8.145% | -1.41%
COCCN1CCC(N(Cc2noc(C3CC3)n2)C(C)=O)C1 (stereo unspecified) | -0.3831% | -9.1% | 4.384% | -32.03% | 4.011% | -5.151%
CSCCC(NC(=O)c1ccccc1)C(=O)N(C)Cc1ccsc1 (stereo unspecified) | -2.762% | -39.26% | 5.223% | -2.766% | -1.051% | 3.374%
COc1cc(C2SCC(=O)Nc3ccsc32)cc(OC)c1OC (stereo unspecified) | 4.545% | -41.52% | -1.927% | -2.687% | 5.456% | -6.537%
COC(=O)NC1(C(=O)Nc2ccc(-c3ncc[nH]3)cc2)CCCC1 | 7.317% | -27.78% | -1.38% | 26.54% | 7.098% | -1.656%
Cc1nccn1C1CCCN(C(=O)c2ccc3c(c2)NC(=O)CO3)C1 (stereo unspecified) | 5.263% | -6.509% | 1.779% | 22.33% | 5.804% | 0.07825%
COCCNC(=O)[C@H]1CN(Cc2csc(C)n2)C[C@H]2OCC[C@@H]12 | -1.754% | -30.68% | 4.809% | - | 4.569% | -4.655%
CC(C)c1ncc(C(=O)N(C)c2ccc(Br)cn2)s1 | -2.956% | 17.27% | 8.333% | 6.847% | -4.482% | 7.848%
CN1CC2(CCN(Cc3ccoc3)CC2)COc2ccccc2S1(=O)=O | 4.237% | -14.37% | 0% | - | 7.658% | -3.018%
O=C1CSC(c2ccc(O)c(Cl)c2)c2c(n(C3CCOCC3)[nH]c2=O)N1 (stereo unspecified) | -0.5464% | - | 7.133% | -6.056% | 3.603% | 7.236%
CC(CC(=O)c1ccco1)NC(=O)c1ccon1 (stereo unspecified) | -2.679% | -10.08% | 5.409% | 17.72% | 7.491% | 3.401%
CCNc1cc2c(nn1)CCN(C(=O)c1cc(C)n(C3CC3)c1C)C2 | 4.507% | 0.09531% | 2.926% | 12.28% | 0.04709% | -2.3%
CCn1cc(NC(=O)NCC(C)N2CCCC2)cn1 (stereo unspecified) | 6.286% | -12.69% | 3.412% | -13.81% | -2.539% | 6.762%
O=C(Nc1ccc(-c2csnn2)cc1)N1CC[C@H](O)C1 | 2.532% | -5.612% | 1.683% | 0.9234% | 1.615% | -0.6849%
O=C(c1cnn2c(-c3ccco3)ccnc12)N1CCCCCC1 | 2.212% | 16.6% | 6.542% | 10.65% | 5.174% | -8.213%
CCCN1CCC2(CC1)CN(C(=O)c1cccnc1)c1ccc(F)cc12.O=C(O)C(F)(F)F.O=C(O)C(F)(F)F | - | - | - | 0.5476% | - | -
[H][C@@]12CC(=O)N(C)[C@@]1([H])CCN2S(=O)(=O)Cc1ccc(C)cc1 | - | - | - | -1.613% | - | -
CO[C@@H]1CN(Cc2scnc2C)[C@@H]2CCCO[C@@H]21 | 0% | -7.153% | -51.54% | - | -0.05557% | 4.694%
COc1ccc(CN2CCC3(CCCN(C)C3=O)C2)c(OC)c1C (stereo unspecified) | 5.699% | -10.93% | 27.5% and 11.86% | -7.099% | 3.39% | 4.917%
Cc1ccsc1[C@@H]1CCN(C(=O)c2ccc(-c3cc[nH]n3)cc2)C[C@H]1O | 1.948% | 8.412% | 3.265% | 28.69% | 4.196% | -1.837%
CC(=O)c1ccc(C(=O)NCc2cccnc2N2CCCC(O)C2)s1 (stereo unspecified) | 1.22% | -5.387% | 4.684% | -0.5457% | 5.919% | -0.6798%
CN(C)c1ccc(C(=O)NCC2(c3ccccc3)CCOCC2)cc1 | 1.075% | -11.89% | 5.105% | 20.29% | -1.066% | 0.25%
O=C(Nc1nccs1)C1CCN(Cc2cccc3c2OCCO3)CC1 | 15.84% | -11.55% | -0.7282% | 17.86% | -0.1569% | 0.576%
COCCC1CCCCN1Cc1nc(Cc2cccc(F)c2)no1 (stereo unspecified) | 3.279% | 24.49% | -0.6536% | 14.21% | 2.186% | -4.204%
Cc1oncc1C(=O)NCc1cc(=O)n2c(n1)CN(CC1CC1)CCC2 | 10.4% | -3.199% | -3.185% | - | 2.838% | -3.936%
CN1CCCCC12Cc1ccccc1CN(C(=O)C1CCCC1)C2 (stereo unspecified) | 5.325% | -0.7625% | -0.2632% | 29.32% | 4.085% | -5.791%
CCN(CC)CC[C@H]1CN(C(=O)C(C)(C)C)CC[C@H]1CC(=O)O | 6.931% | -35.8% | 2.483% | 28.04% | 5.418% | -3.539%
c1cnn(CC2CN(Cc3nc(-c4ccsc4)no3)CCO2)c1 (stereo unspecified) | -0.3802% | -3.653% | 2.128% | 0.3356% | 2.753% | -3.145%
O=C(CCC1CCCC1)N1CCC(c2ncc3c(n2)CCNC3)CC1 | 2.703% | -66.68% | 0.8333% | 21.42% | 1.883% | -0.5853%
O=c1oc(-c2cccs2)nn1CC1(O)CCCCC1 | 5.732% | -44.53% | - | -0.7487% | 2.437% | -8.375%
NC(=O)CC1CCN(C(=O)NCc2cccc(-n3cccn3)c2)CC1 | 4.867% | -14.35% | -4.439% | -2.954% | 2.21% | 2.825%
Cc1ncccc1C(=O)N1CCC2(CCc3ccccc3C(=O)N2)C1 (stereo unspecified) | 4.215% | -6.616% | 8.612% | 16.58% | -1.31% | 13.93%
CCOc1cncc(N(C)CC(=O)NC)n1 | 0.9804% | -1.815% | 1.276% | 27.49% | 7.241% | -0.8738%
Cc1ccc(CN2CC[C@@H]3[C@@H]2CCN3C(=O)Cc2cccs2)o1 | 16.58% | -19.29% | 6.312% | - | 1.775% | -
CCC(=O)N1CCC(c2nc3ccc(NC(C)C)cn3n2)CC1 | 1.604% | 1.346% | -2.277% | -11.88% | 4.299% | -5.629%

The first 5 entries again:

{"smiles": "CC(=O)N1CC[C@H](c2nc3cc(C)ccc3o2)C1", "A": 3.483, "B": -1.511, "C": 0.5894, "D": 3.857, "E": 6.563, "F": -3.738}
{"smiles": "O=C(Nc1nncs1)NC1CCOc2ccccc21", "stereo": "stereo unspecified", "A": 2.479, "B": 3.941, "C": -1.505, "D": -9.341, "E": -6.163, "F": -0.4112}
{"smiles": "O=C(O)C(F)(F)F.[H][C@@]12CCN(c3ncc(F)cn3)C[C@]1([H])O[C@@H](C(=O)N1CCN(C)CC1)C2", "D": -2.43}
{"smiles": "CC(=O)NCc1nnc2n1CCN(Cc1cccs1)C2", "A": 4.908, "B": -8.265, "E": -5.131, "F": -1.647}
{"smiles": "O=C(O)C(F)(F)F.[H][C@@]12CC(=O)N(c3cccnc3)[C@@]1([H])CCN2C(=O)c1ccco1", "D": 26.38}